Data reported in patent US12559454B2, “Benzenesulfonamide derivatives and uses thereof” (2692372 Ontario, Inc., priority 2019, dated 2026).

System: normal pooled human fibroblasts
Assay: Viability of normal pooled human fibroblasts (Example G1)
Conditions: IC50 human fibroblasts/IC50 RL cells

Nc1ncnc2c1c(-c1ccc(Oc3ccccc3)cc1)nn2[C@@H]1CCCN(S(=O)(=O)c2c(F)c(F)c(F)c(F)c2OC2CC2)C1 [I-A6, (R)-1-(1-((2-cyclopropoxy-3,4,5,6-tetrafluorophenyl)sulfonyl)piperidin-3-yl)-3-(4-phenoxyphenyl)-1H-pyrazolo[3,4-d]pyrimidin-4-amine]
therapeutic index (TI): > 25

Nc1ncnc2c1c(-c1ccc(Oc3ccccc3)cc1)nn2[C@@H]1CCCN(S(=O)(=O)c2c(F)c(F)c(F)c(F)c2F)C1 [I-A1, (R)-1-(1-((perfluorophenyl)sulfonyl)piperidin-3-yl)-3-(4-phenoxyphenyl)-1H-pyrazolo[3,4-d]pyrimidin-4-amine]
therapeutic index (TI): 2.5
